The target in this experiment is T1, Helicobacter pylori adhesin HpaA (neuraminyllactose-binding hemagglutinin), recombinant, 6x His tagged (Helicobacter pylori (strain ATCC 26695)) (UniProt P55969).
T1 sequence: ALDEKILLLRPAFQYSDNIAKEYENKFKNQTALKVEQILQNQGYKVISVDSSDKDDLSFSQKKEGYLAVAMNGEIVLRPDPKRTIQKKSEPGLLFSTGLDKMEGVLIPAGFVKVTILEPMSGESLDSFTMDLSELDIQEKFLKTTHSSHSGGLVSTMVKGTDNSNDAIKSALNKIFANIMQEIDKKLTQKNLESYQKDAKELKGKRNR
The experiment in a line: affinity purification with mass spectrometry; only the target purified.

No constants are given. Whether binding was seen depends on the method and setting. In cells and extracts the contact can be indirect. These calls come from enrichment with a bait or labelling near it, and not all partners need be listed. Sequences can lack the tags named with a protein.

B1: Cleavage stimulation factor subunit 2 tau variant (protein, UniProt Q9H0L4 1-616)
chain: MSSLAVRDPAMDRSLRSVFVGNIPYEATEEQLKDIFSEVGSVVSFRLVYDRETGKPKGYGFCEYQDQETALSAMRNLNGREFSGRALRVDNAASEKNKEELKSLGPAAPIIDSPYGDPIDPEDAPESITRAVASLPPEQMFELMKQMKLCVQNSHQEARNMLLQNPQLAYALLQAQVVMRIMDPEIALKILHRKIHVTPLIPGKSQSVSVSGPGPGPGPGLCPGPNVLLNQQNPPAPQPQHLARRPVKDIPPLMQTPIQGGIPAPGPIPAAVPGAGPGSLTPGGAMQPQLGMPGVGPVPLERGQVQMSDPRAPIPRGPVTPGGLPPRGLLGDAPNDPRGGTLLSVTGEVEPRGYLGPPHQGPPMHHASGHDTRGPSSHEMRGGPLGDPRLLIGEPRGPMIDQRGLPMDGRGGRDSRAMETRAMETEVLETRVMERRGMETCAMETRGMEARGMDARGLEMRGPVPSSRGPMTGGIQGPGPINIGAGGPPQGPRQVPGISGVGNPGAGMQGTGIQGTGMQGAGIQGGGMQGAGIQGVSIQGGGIQGGGIQGASKQGGSQPSSFSPGQSQVTPQDQEKAALIMQVLQLTADQIAMLPPEQRQSILILKEQIQKSTGAS
Turning to B1, the binding entry is recorded as “binds”.
